Test: Activity (international units) of the antibiotics used

For Polymyxin B sulphate, the activity was 846.4 iU/ml.

From patent publication EP1785721A1, “Microbial, viral and mammalian susceptibility to agents that affect cell growth and metabolism, and mode of action of compounds” (Stratos Bio Ltd., priority 2005, dated 2007)
